Laboratory results reported in PubChem BioAssay AID2685 (National Center for Advancing Translational Sciences (NCATS), 2010).
The campaign covered roughly 320,000 compounds. About 2,100 (0.66%) were called active. Where a call stands in place of a potency, no number is given. All entries are inconclusive by the source's own rule. Clear calls are listed elsewhere. The call rests on the fitted dose curve; in most records, active means well fitted inhibition curve with a large enough effect in the signal ratio, with a control signal flat (not every such curve was filed as active); inconclusive means small, poorly fitted or top-dose-only effect, or effect the other way, or a change in a side signal; inactive means flat fitted curve, though single readings scatter; the % refers to the signal ratio.

Experiment: qHTS Assay for Lipid Storage Modulators in Drosophila S3 Cells
Details: BODIPY lipid droplet fluorescence, 18-24 h, cells fed with added oleic acid
Potency means the concentration at half of the fitted maximal effect.

Row | SMILES | Potency
1 | CCOP(C)(=S)SCC(=O)NC(C)(CC)C(=O)O (centres undefined) | inconclusive: 1.03 µM
2 | CP(=O)(Nc1ccc(SC(F)(F)F)cc1)Oc1ccc(F)cc1 (centres undefined) | inconclusive
3 | Cc1ccccc1NP(C)(=O)Nc1ccccc1C | inconclusive: 2.31 µM
4 | COc1ccc(NP(C)(=O)Oc2ccccc2OC)cc1 (centres undefined) | inconclusive
5 | O=[N+]([O-])c1ccc(OP2(=O)COCCO2)cc1 (centres undefined) | inconclusive: 0.103 µM
6 | COc1ccc(OP(C)(=O)Nc2ccc(SC(F)(F)F)cc2)cc1 (centres undefined) | inconclusive
7 | CCCCCOc1ccc(NP(C)(=O)Oc2ccc(Cl)cc2Cl)cc1 (centres undefined) | inconclusive: 7.31 µM
8 | CP(=O)(Nc1ccccc1F)Oc1ccccc1 (centres undefined) | inconclusive
9 | CC(C)c1ccc(OP(C)(=O)Nc2ccc(SC(F)(F)F)cc2)cc1 (centres undefined) | inconclusive: 0.146 µM
10 | COc1ccc(OP(C)(=O)Nc2ccccn2)cc1 (centres undefined) | inconclusive: 32.6 µM
11 | COc1ccccc1OP(C)(=O)Nc1ccc(Br)cc1 (centres undefined) | inconclusive
12 | CP(=O)(Nc1ccccn1)Oc1ccccc1 (centres undefined) | inconclusive
13 | O=[N+]([O-])c1cc([N+](=O)[O-])c(Nc2ccccn2)c([N+](=O)[O-])c1 | inconclusive
14 | Cc1cc(C)cc(OP(C)(=O)Nc2cccc(C(F)(F)F)c2)c1 (centres undefined) | inconclusive
15 | CP(=O)(Nc1ccc(Cl)cc1Cl)Oc1ccccc1 (centres undefined) | inconclusive
16 | CCOC(=O)c1ccc(NP(C)(=O)Oc2ccc(Cl)cc2)cc1 (centres undefined) | inconclusive
17 | CP(=O)(OC12CC3CC(CC(C3)C1)C2)OC12CC3CC(CC(C3)C1)C2 | inconclusive: 0.651 µM
18 | COc1ccccc1OP(C)(=O)Nc1c(C)n(C)n(-c2ccccc2)c1=O (centres undefined) | inconclusive: 0.82 µM
19 | CP(=O)(Oc1ccccc1)N1CCOC1=O (centres undefined) | inconclusive
20 | CCc1ccc(OP(C)(=O)Nc2cccnc2)cc1 (centres undefined) | inconclusive
21 | COc1ccc(OP(C)(=O)Nc2ccc(Br)cc2)cc1 (centres undefined) | inconclusive
22 | CN(C)C(=O)c1c([N+](=O)[O-])cc([N+](=O)[O-])cc1[N+](=O)[O-] | inconclusive: 16.4 µM

Row | SMILES | Potency
23 | CC(C)(C)c1ccc(OP(C)(=O)O)cc1 | inconclusive: 20.6 µM
24 | CCc1ccc(OP(C)(=O)N2CCN(c3ccc([N+](=O)[O-])cc3)CC2)cc1 (centres undefined) | inconclusive: 3.66 µM
25 | CP(=O)(NC(=O)Nc1ccccc1)Oc1ccccc1 (centres undefined) | inconclusive
26 | Cc1cc(C)cc(OP(C)(=O)Nc2ccc(SC(F)(F)F)cc2)c1 (centres undefined) | inconclusive: 5.8 µM
27 | CP(=O)(Nc1ccc(SC(F)(F)F)cc1)Oc1ccc(Cl)cc1 (centres undefined) | inconclusive
28 | Cc1cccc(C)c1OP(C)(=O)Nc1ccc(SC(F)(F)F)cc1 (centres undefined) | inconclusive: 16.4 µM
29 | CP(=O)(Oc1ccccc1)OC(c1ccccc1)C(F)(F)F (centres undefined) | inconclusive
30 | CP(=S)(Nn1cnnc1)Oc1ccccc1 (centres undefined) | inconclusive: 4.11 µM
31 | CC(C)(C)c1ccc(OP(C)(=O)Nc2ccc(SC(F)(F)F)cc2)cc1 (centres undefined) | inconclusive: 18.4 µM
32 | Cc1cccc(C)c1OP(C)(N)=O (centres undefined) | inconclusive: 0.0259 µM
33 | Cc1cc(C)cc(OP(C)(N)=O)c1 (centres undefined) | inconclusive: 18.4 µM
34 | COc1ccc(OP(C)(=O)Nc2cccc(F)c2)cc1 (centres undefined) | inconclusive
35 | COc1ccccc1OP(C)(=O)Nc1ccc(C)cc1 (centres undefined) | inconclusive
36 | C=C(C=O)CC1CC(O)[C@]2(C)OC3C[C@@H]4OC5C[C@]6(C)O[C@]7(C)CCC8OC9C[C@]%10(C)OC(/C(C)=C\CO)C(O)CC%10OC9CC(C)C8OC7CC6O[C@]5(C)C/C=C\C4OC3CC2O1 (some centres undefined) | inconclusive: 7.31 µM
37 | Cc1cc(C)cc(OP(C)(=O)Nc2ccc(C)cc2C)c1 (centres undefined) | inconclusive: 0.651 µM
38 | Cc1ccc(C)c(NP(C)(=O)Oc2ccccc2)c1 (centres undefined) | inconclusive
39 | CP(=O)(Nc1cccc(Br)c1)Oc1ccccc1 (centres undefined) | inconclusive: 1.16 µM
40 | Cc1cc(C)cc(OP(C)(=O)Nc2ccccn2)c1 (centres undefined) | inconclusive: 6.51 µM
41 | CP(=O)(Nc1ccc(SC(F)(F)F)cc1)Oc1ccccc1 (centres undefined) | inconclusive
42 | CCCOc1ccc(NP(C)(=O)Oc2ccc(Cl)cc2)cc1 (centres undefined) | inconclusive
43 | O=[N+]([O-])c1cc([N+](=O)[O-])c(-n2nnc3ccccc32)c([N+](=O)[O-])c1 | inconclusive
44 | Cc1nc2ccc3ccccc3c2s1.O=[N+]([O-])c1cc([N+](=O)[O-])c(O)c([N+](=O)[O-])c1 | inconclusive
